Measured data: PubChem BioAssay AID1259405 (NCATS, 2018)

Test: 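Silenced genes that increase secreted GFP made by CHO cells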 (primary screen)
Cell system: Chinese hamster CHO-K1 ovary cells with stable secreted eGFP expression
Reagents: single siRNA against mouse genes, 0.8 pmol siRNA per well (2 µl of 400 nM stock)
Duration: 3 days
Read-out: 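Percent of the per-plate non-targeting control median for intracellular GFP per well by laser scanning cytometry and for cell viability by ATP luminescence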
Direction: GFP, % of control: higher = more GFP per well, higher productivity; viability (ATP), % of control: higher = more viable cells (more ATP)
Hit rule: 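a knock-down is called active if GFP reaches 120% or more of non-targeting control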
Here is an unselected part of about 50,000 reagents tested. Over the whole deposit, about 4,000 (8%) are marked active. 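Mouse siRNA library applied to hamster cells; one well for each siRNA.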 Reagents against one gene are numbered here.

target gene,siRNA no.,"GFP, % of control","viability (ATP), % of control",Outcome
Cpap,1,96.6,85.6,inactive
Cpap,2,107,102,inactive
Cpap,3,60.5,52.4,inactive
Fam168a,1,69,64.8,inactive
Fam168a,2,77.8,75.3,inactive
Fam168a,3,103,76.8,inactive
Qrich1,1,90.7,110,inactive
Qrich1,2,69,90.3,inactive
Tti1,1,63.9,65.7,inactive
Tti1,2,39.2,72,inactive
Tti1,3,77.3,97.9,inactive
Spock3,1,129,79.4,active
Spock3,2,88.7,91,inactive
Spock3,3,81.7,67.9,inactive
Rnf187,1,118,63.4,inactive
Rnf187,2,42.6,32.1,inactive
Rnf187,3,97.1,74.9,inactive
Spag5,1,98.3,88.5,inactive
Spag5,2,91.2,81.2,inactive
Spag5,3,47.7,65.4,inactive
Ghsr,1,27.1,33.7,inactive
Ghsr,2,51.6,53.8,inactive
Ghsr,3,49.9,44.8,inactive
Ajuba,1,83.8,88.8,inactive
Ajuba,2,49.6,73.4,inactive
Pcgf1,1,68.6,74.6,inactive
Pcgf1,2,72.3,85.1,inactive
Pcgf1,3,73.4,81.3,inactive
Necab2,1,47.6,43.9,inactive
Necab2,2,60.5,73.2,inactive
Galc,1,53.1,63.7,inactive
Galc,2,83.9,81.1,inactive
Galc,3,92.4,82,inactive
Lrrc23,1,47.5,68.9,inactive
Lrrc23,2,62.2,58.8,inactive
Lrrc23,3,94.2,59.5,inactive
